Here are results for 2 molecules from paper PMC8862006.

By UniProt entry, the sequences of proteins in these tests, tags left out.
UniProt P03071: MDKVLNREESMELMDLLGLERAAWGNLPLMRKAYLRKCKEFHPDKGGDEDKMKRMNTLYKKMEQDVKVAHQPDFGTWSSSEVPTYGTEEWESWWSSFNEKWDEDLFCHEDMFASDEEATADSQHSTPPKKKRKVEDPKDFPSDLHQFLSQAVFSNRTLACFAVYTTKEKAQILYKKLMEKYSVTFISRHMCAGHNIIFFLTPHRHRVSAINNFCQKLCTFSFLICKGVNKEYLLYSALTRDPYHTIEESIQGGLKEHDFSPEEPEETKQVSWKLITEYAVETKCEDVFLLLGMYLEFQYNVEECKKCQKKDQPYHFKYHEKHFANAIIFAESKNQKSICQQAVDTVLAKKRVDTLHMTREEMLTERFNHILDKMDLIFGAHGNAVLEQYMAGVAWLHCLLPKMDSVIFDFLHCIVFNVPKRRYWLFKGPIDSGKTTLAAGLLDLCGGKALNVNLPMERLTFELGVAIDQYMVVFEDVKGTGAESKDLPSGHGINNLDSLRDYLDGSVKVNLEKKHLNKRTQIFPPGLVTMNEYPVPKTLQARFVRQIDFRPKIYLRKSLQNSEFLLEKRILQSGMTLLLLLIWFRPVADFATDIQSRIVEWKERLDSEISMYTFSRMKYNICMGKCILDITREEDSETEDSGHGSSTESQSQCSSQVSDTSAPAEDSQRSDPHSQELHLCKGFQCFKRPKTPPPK
UniProt Q06609: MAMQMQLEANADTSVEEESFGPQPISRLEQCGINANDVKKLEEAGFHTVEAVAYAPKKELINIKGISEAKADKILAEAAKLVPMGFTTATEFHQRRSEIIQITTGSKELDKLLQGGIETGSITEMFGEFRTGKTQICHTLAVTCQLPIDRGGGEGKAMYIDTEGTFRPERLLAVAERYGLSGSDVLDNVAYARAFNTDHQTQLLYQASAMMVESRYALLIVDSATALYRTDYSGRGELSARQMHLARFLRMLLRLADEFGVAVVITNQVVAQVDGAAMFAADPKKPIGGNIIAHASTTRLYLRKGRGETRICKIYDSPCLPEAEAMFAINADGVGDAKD

Read-outs that look alike come from different tables or passages of the source. No constants are given. Whether binding was seen depends on the method and setting. In cells and extracts the contact can be indirect. Some entries that bind do so weakly or less than the wild type.

Assay [1] concerns the target BK polyomavirus (BKPyV) Large T antigen (BK polyomavirus (Dunlop strain)) (UniProt P03071). The experiment in a line: proximity ligation; Duolink In Situ Red kit; BKPyV-infected differentiated NHU cell cultures on glass 12-well slides, fixed in 10% neutral buffered formalin, permeabilised in PBS with 0.5% Triton X-100.
Assay [2] has the same target. The description is as above. The source holds these as a separate data set.

As for Rad51 (from UniProt Q06609 1-339), the binding result in assay [1] is given as “binds”.

B1: phospho-Retinoblastoma protein (protein, UniProt P06400 1-928)
chain: MPPKTPRKTAATAAAAAAEPPAPPPPPPPEEDPEQDSGPEDLPLVRLEFEETEEPDFTALCQKLKIPDHVRERAWLTWEKVSSVDGVLGGYIQKKKELWGICIFIAAVDLDEMSFTFTELQKNIEISVHKFFNLLKEIDTSTKVDNAMSRLLKKYDVLFALFSKLERTCELIYLTQPSSSISTEINSALVLKVSWITFLLAKGEVLQMEDDLVISFQLMLCVLDYFIKLSPPMLLKEPYKTAVIPINGSPRTPRRGQNRSARIAKQLENDTRIIEVLCKEHECNIDEVKNVYFKNFIPFMNSLGLVTSNGLPEVENLSKRYEEIYLKNKDLDARLFLDHDKTLQTDSIDSFETQRTPRKSNLDEEVNVIPPHTPVRTVMNTIQQLMMILNSASDQPSENLISYFNNCTVNPKESILKRVKDIGYIFKEKFAKAVGQGCVEIGSQRYKLGVRLYYRVMESMLKSEEERLSIQNFSKLLNDNIFHMSLLACALEVVMATYSRSTSQNLDSGTDLSFPWILNVLNLKAFDFYKVIESFIKAEGNLTREMIKHLERCEHRIMESLAWLSDSPLFDLIKQSKDREGPTDHLESACPLNLPLQNNHTAADMYLSPVRSPKKKGSTTRVNSTANAETQATSAFQTQKPLKSTSLSLFYKKVYRLAYLRLNTLCERLLSEHPELEHIIWTLFQHTLQNEYELMRDRHLDQIMMCSMYGICKVKNIDLKFKIIVTAYKDLPHAVQETFKRVLIKEEEYDSIIVFYNSVFMQRLKTNILQYASTRPPTLSPIPHIPRSPYKFPSSPLRIPGGNIYISPLKSPYKISEGLPTPTKMTPRSRILVSIGESFGTSEKFQKINQMVCNSDRVLKRSAEGSNPPKPLKKLRFDIEGSDEADGSKHLPGESKFQQKLAEMTSTRTRMQKQKMNDSMDTSNKEEK
modifications: phosphorylated (phospho-pRb)
Consider B1, for which the binding entry in assay [2] is listed as “binds”.
